# Assay results from publication PMC4995024, “Ligand Binding at the α4-α4 Agonist-Binding Site of the α4β2 nAChR Triggers Receptor Activation through a Pre-Activated Conformational State” (PLoS ONE, 2016).
# Amino acid sequences for entries named in this document (tags omitted). Residues count along the entry.
# UniProt P17787, 26-502 limits assumed: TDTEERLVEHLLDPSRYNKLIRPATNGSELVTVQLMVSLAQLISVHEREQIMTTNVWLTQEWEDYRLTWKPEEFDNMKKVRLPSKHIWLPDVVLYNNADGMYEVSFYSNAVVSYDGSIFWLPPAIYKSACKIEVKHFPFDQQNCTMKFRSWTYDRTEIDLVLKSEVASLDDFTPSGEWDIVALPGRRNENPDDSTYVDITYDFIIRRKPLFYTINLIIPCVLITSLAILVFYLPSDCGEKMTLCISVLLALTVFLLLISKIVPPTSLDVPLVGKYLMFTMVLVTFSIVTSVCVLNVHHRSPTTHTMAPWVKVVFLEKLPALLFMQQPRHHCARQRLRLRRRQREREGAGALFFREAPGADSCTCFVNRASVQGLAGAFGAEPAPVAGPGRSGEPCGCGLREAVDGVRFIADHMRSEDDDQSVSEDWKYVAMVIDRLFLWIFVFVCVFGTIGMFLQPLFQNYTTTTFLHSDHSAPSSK
# UniProt P43681, 29-627 limits assumed: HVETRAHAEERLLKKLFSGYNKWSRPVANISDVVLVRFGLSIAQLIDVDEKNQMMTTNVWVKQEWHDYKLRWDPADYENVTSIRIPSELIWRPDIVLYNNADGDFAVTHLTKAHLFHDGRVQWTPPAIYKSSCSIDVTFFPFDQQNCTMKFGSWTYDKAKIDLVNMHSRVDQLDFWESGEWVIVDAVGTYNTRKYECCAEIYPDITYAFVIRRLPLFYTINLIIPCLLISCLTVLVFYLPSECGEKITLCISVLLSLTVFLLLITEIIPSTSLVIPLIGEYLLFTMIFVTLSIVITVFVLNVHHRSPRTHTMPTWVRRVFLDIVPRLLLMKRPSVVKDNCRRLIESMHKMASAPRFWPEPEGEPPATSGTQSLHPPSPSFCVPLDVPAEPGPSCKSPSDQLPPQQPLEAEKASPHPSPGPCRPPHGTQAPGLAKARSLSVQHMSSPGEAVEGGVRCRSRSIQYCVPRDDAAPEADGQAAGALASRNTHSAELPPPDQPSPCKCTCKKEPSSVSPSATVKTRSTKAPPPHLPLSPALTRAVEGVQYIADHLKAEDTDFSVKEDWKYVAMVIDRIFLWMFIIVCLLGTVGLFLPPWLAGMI
# A number of entries come with more than one value. The list is limited to them. An entry can have further records. The records of an entry differ, and nothing given here explains why; they may come from other doses, times, organisms or constructs than stated.
# Molecular target: 3α4:2β2 nAChR (Homo sapiens, UniProt P17787+P43681)
# Experiment: Two-electrode voltage-clamp electrophysiology in Xenopus oocytes, WT 3α4:2β2 receptor
# Assay type: cell-based
# Conditions: 3α4:2β2, ligand alone; Hill co-efficient of one
smiles,measurement,value
CCOc1cncc(/C=C/CCNC)c1 [TC-2559],EC50,3.3 µM and 640 nM
